In the supplement of paper PMC6078165:

Tested on: Hs578T
Test: relative JC-1 red fluorescence (viability) vs pre-drug, coculture with fibroblast (fraction); higher = more viable cancer cells
Settings: 1 µM
Protocol: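 JC-1 labelled TNBC cells cocultured 1:1 (1,500 cells each) with CellTrace Violet stained primary or stromal fibroblasts in 384-well plates in FluoroBrite medium, treated with one of 42 anticancer drugs at 0.1, 1, 10 or 100 uM. JC-1 red fluorescence (mitochondrial integrity in cancer cells only) was read by plate reader every 8 h for 72 h. Values are normalised to each well's pre-drug value. The stock of one drug was tenfold lower, so its dose labels may be too high.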

CC(=O)c1c(C)c2cnc(Nc3ccc(N4CCNCC4)cn3)nc2n(C2CCCC2)c1=O [Palbociclib]
Settings	relative JC-1 red fluorescence
8 h	0.8881 ± 0.0072
16 h	0.779 ± 0.019
24 h	0.784 ± 0.0014
32 h	0.773 ± 0.014
40 h	0.734 ± 0.012
48 h	0.697 ± 0.022
56 h	0.689 ± 0.023
64 h	0.658 ± 0.032
72 h	0.647 ± 0.04

relative JC-1 red fluorescence
Settings	8 h	16 h	24 h	32 h	40 h	48 h	56 h	64 h	72 h
coculture fibroblast: C12385	0.861 ± 0.049	0.75 ± 0.054	0.764 ± 0.044	0.698 ± 0.065	0.654 ± 0.061	0.642 ± 0.065	0.627 ± 0.071	0.627 ± 0.073	0.629 ± 0.072
coculture fibroblast: H6013	0.8726 ± 0.0025	0.839 ± 0.015	0.8144 ± 0.00069	0.803 ± 0.013	0.778 ± 0.0087	0.785 ± 0.017	0.776 ± 0.013	0.775 ± 0.015	0.757 ± 0.013
coculture fibroblast: H6019	0.802 ± 0.029	0.73 ± 0.034	0.737 ± 0.019	0.646 ± 0.0072	0.616 ± 0.0071	0.594 ± 0.013	0.563 ± 0.016	0.539 ± 0.013	0.517 ± 0.016
coculture fibroblast: H6076	0.925 ± 0.024	0.831 ± 0.02	0.8157 ± 0.0035	0.8086 ± 0.0047	0.77 ± 0.013	0.784 ± 0.024	0.781 ± 0.029	0.768 ± 0.025	0.777 ± 0.035
coculture fibroblast: H6231	0.904 ± 0.013	0.837 ± 0.059	0.8 ± 0.057	0.778 ± 0.053	0.727 ± 0.056	0.712 ± 0.048	0.678 ± 0.048	0.65 ± 0.05	0.635 ± 0.037
coculture fibroblast: HADF	0.9198 ± 0.0078	0.868 ± 0.027	0.813 ± 0.046	0.793 ± 0.045	0.772 ± 0.051	0.754 ± 0.058	0.721 ± 0.054	0.717 ± 0.053	0.691 ± 0.059
coculture fibroblast: HCFa	0.877 ± 0.065	0.853 ± 0.038	0.835 ± 0.059	0.82 ± 0.088	0.779 ± 0.1	0.783 ± 0.13	0.758 ± 0.13	0.748 ± 0.14	0.709 ± 0.14
coculture fibroblast: HCPF	0.938 ± 0.062	0.872 ± 0.073	0.871 ± 0.049	0.848 ± 0.045	0.806 ± 0.035	0.801 ± 0.026	0.793 ± 0.02	0.7601 ± 0.0048	0.7296 ± 0.0067
coculture fibroblast: HHSteC	0.957 ± 0.015	0.9105 ± 0.0069	0.882 ± 0.04	0.866 ± 0.052	0.824 ± 0.074	0.811 ± 0.086	0.797 ± 0.1	0.786 ± 0.11	0.756 ± 0.12
coculture fibroblast: HMF	0.9032 ± 0.0046	0.8117 ± 0.0045	0.7738 ± 0.00078	0.75909 ± 0.00059	0.7088 ± 0.0061	0.69 ± 0.0092	0.664 ± 0.0077	0.639 ± 0.0065	0.6299 ± 0.0025
coculture fibroblast: HPFa	0.961 ± 0.0045	0.8789 ± 0.0012	0.814 ± 0.027	0.77 ± 0.039	0.735 ± 0.048	0.699 ± 0.047	0.649 ± 0.048	0.625 ± 0.057	0.581 ± 0.061
coculture fibroblast: HUF	0.898 ± 0.022	0.8042 ± 0.0016	0.8086 ± 0.0029	0.717 ± 0.013	0.673 ± 0.0084	0.643 ± 0.016	0.614 ± 0.021	0.607 ± 0.036	0.602 ± 0.038
coculture fibroblast: Hs27A	0.9294 ± 0.0046	0.882 ± 0.0096	0.8729 ± 0.0057	0.8531 ± 0.0022	0.8127 ± 0.0017	0.8048 ± 0.0077	0.7615 ± 0.0059	0.767 ± 0.014	0.715 ± 0.012
coculture fibroblast: Hs343T	0.956 ± 0.035	0.847 ± 0.054	0.826 ± 0.021	0.79968 ± 0.00065	0.7442 ± 0.0055	0.717 ± 0.011	0.689 ± 0.019	0.66 ± 0.021	0.649 ± 0.027
coculture fibroblast: WS1	0.81 ± 0.014	0.716 ± 0.0087	0.664 ± 0.0073	0.591 ± 0.012	0.544 ± 0.012	0.525 ± 0.022	0.502 ± 0.017	0.5 ± 0.018	0.503 ± 0.019

± gives the standard deviation of the averaged measurements. The reference is the same well before dosing, and untreated signal decays as well.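 Fibroblast labels denote human fibroblasts, mainly primary ones from uterus (C12385, HUF), lung (H6013), bone (Hs27A), adrenal (HADF) and skin (WS1), plus mammary HMF and breast cancer-associated Hs343T. Cancer cells are basal-like or mesenchymal-like triple-negative breast cancer lines. A hit is a response shift exceeding 3x replicate standard deviation. The tissue of the other fibroblasts is not given here.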
